Results on 23 sequences are retold here after patent US5525495.

Protein sequences, listed by entry. Tags and fused reporters are not part of them. Lines headed by an entry give the natural chain unless they say otherwise; changes in a name come on top. Chains listed by the source or under a name are the forms on record and can include a tag or linker.
UniProt Q12926, other isoform, or with tags, fused parts or gaps: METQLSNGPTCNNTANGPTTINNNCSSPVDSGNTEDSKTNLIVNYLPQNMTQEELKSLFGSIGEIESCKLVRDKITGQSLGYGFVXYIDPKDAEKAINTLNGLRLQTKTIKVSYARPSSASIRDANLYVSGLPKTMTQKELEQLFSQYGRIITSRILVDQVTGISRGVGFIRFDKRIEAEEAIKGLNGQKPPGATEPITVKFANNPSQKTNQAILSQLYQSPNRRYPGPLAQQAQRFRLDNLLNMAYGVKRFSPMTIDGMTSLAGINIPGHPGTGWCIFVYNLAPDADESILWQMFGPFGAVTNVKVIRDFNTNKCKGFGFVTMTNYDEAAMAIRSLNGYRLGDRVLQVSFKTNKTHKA

The exact form of at least one protein or probe is not confirmed. Results from cells or extracts need not show a direct contact.

For data set [1], the target named is Hel-N2 (deltaHel-N1) deletion of 13-aa segment between RRM2 and RRM3 (FIG. 10) (Homo sapiens) (UniProt Q12926). Put plainly: SELEX. Conditions: high salt and urea washes; protein in a lysate after overexpression.
The target in data set [2] is Hel-N1 (Homo sapiens) (UniProt Q12926). The data set can be described thus: SELEX. Conditions: protein in a lysate after overexpression.

For “AACCCAUCCAUUUUAUUUUUCUUUCGUUGUUG [FIG. 11 Hel-N2 selected RNA]”, the selection result in data set [1] was “selected”.

For “ACACCCUAGUUUUGUUUUUUAAGUU [FIG. 11 Hel-N2 selected RNA]”, the selection result in data set [1] is “selected”.

“ACGUUCUACUCCUAAUUUGAUUUUAGUU [FIG. 11 Hel-N2 selected RNA]”: in data set [1], the selection result is given as “selected”.

On to “AGAGUUGCCAAAAUCUUAUAUUUUUUUGGUU [FIG. 11 Hel-N2 selected RNA]”, for which, in data set [1], the selection result was “selected”.

Take “AGCGUAUUGUUUUAUUUAAAUUUUUG [FIG. 11 Hel-N2 selected RNA]”: in data set [1], the selection result is recorded as “selected”.

Take “AUUAUACUUUUUACACACAUUAUUGC [FIG. 11 Hel-N2 selected RNA]”: in data set [1], the selection result is listed as “selected”.

Turning to “AUUAUUAUUUUGUAUUGUUUUUUAAAUC [FIG. 11 Hel-N2 selected RNA]”, the selection result in data set [1] was “selected”.

As for “AUUUACUUUCGUAUUUUUAUUUUAAAG [FIG. 11 Hel-N2 selected RNA]”, the selection result in data set [1] is reported as “selected”.

Take “AUUUAUAUAGUUUUUUUUAAUUUCG [FIG. 11 Hel-N2 selected RNA]”: in data set [1], the selection result was “selected”.

As for “AUUUAUUUUAUGUUCUCGAUUCUA [FIG. 11 Hel-N2 selected RNA]”, in data set [1], the selection result is “selected”.

Regarding “AUUUAUUUUGAUUUUAAGUAUGUAUCUU [FIG. 11 Hel-N2 selected RNA]”, the selection result in data set [1] was “selected”.

With “AUUUAUUUUUAUUUUUCUUAAGUUACUC [FIG. 11 Hel-N2 selected RNA]”, the selection result in data set [1] is “selected”.

For “AUUUGAUUUACAUUCGUUUCAUUAU [FIG. 11 Hel-N2 selected RNA]”, the selection result in data set [1] is given as “selected”.

On to “AUUUGUUUUUUGUUUUUCAUUUUAGUCC [FIG. 11 Hel-N2 selected RNA]”, for which the selection result in data set [1] is “selected”.

Take “AUUUUAGUUAGCGCUUUUCGAAUUUG [FIG. 11 Hel-N2 selected RNA]”: the selection result in data set [1] was “selected”.

In the case of “AUUUUAUUUAGUUUAGCCACCGUUUAU [FIG. 11 Hel-N2 selected RNA]”, the selection result in data set [1] is listed as “selected”.

For “CGAACCCGGAUCUUUGUUUUAUUGAGUU [FIG. 11 Hel-N2 selected RNA]”, the selection result in data set [1] is “selected”.

For the sequence “CGUAUUUUAUUGUUUUAUUUGAAGUU [FIG. 11 Hel-N2 selected RNA]”, the selection result in data set [1] is listed as “selected”.

For “GUCCCAAAUCAGUUUUUCUUUUAUUGUU [FIG. 11 Hel-N2 selected RNA]”, the selection result in data set [1] is “selected”.

For “UUCCACCAUAAACUGUUUUAUUUACGUU [FIG. 11 Hel-N2 selected RNA]”, the selection result in data set [1] is on record as “selected”.

For the sequence “UUUAGUUUAAUAGGGAUAAUACUUA [FIG. 3 selected RNA]”, the selection result in data set [2] (3 rounds) is “selected”.

Turning to “UUUGUUUUCGUGUAACGCAUAUACU [FIG. 3 selected RNA]”, in data set [2] (3 rounds), the selection result is recorded as “selected”.

Take “UUUUAAUUUACAUUUUUAUUUAUUUUGUAAUUAUGAUUUGGGUUGGGGAAGGGGGGGGCUACAUUAUAAACGCUUAGGAAUUCGAGCUCGGUACCC [GRP-2']”: the selection result in data set [2] (selected from brain mRNA 3'-UTR library) is recorded as “selected”.
